Test results reported in US7060444B1, “Zone 3 necrosis associated markers and method of use thereof” (CuraGen Corporation, priority 2002, dated 2006).

Test system: Rat primary hepatocytes

Which “Zone 3 Necrosis Pathology” value does the source give for CC(C)c1c(C(=O)Nc2ccccc2)c(-c2ccccc2)c(-c2ccc(F)cc2)n1CC[C@@H](O)C[C@@H](O)CC(=O)O [Atorvastatin] here?
The value was “Absent”.
